These are yes or no findings as the source states them, for the method shown. Binding seen in cells or lysates may run through a third protein. Some results given as binding are weak or reduced against the parent protein; the word gives no strength.
Assays:
[1] = target: His-tagged Fc/sE-cad chimera (recombinant soluble E-cadherin fused to Fc) (UniProt P12830); assay: pull-down; HUVEC lysate (1 mg; 50 mM NaH2PO4, 300 mM NaCl, 10 mM imidazole, 1% NP-40, pH 8.0) incubated with 10 μg/mL His-tagged sE-cad/Fc for 6 h at 4 °C, then Ni-NTA for 1.5 h; washed with 20 mM imidazole, eluted with 500 mM imidazole; western blot; only the target purified
[2] = target: NFκB p65 (human (endogenous in HUVEC)), Q04206; assay: co-IP; HUVEC nuclear extracts (1 mg; 2 mM EDTA, 50 mM Tris pH 7.5, 150 mM NaCl, 1% NP-40), with or without exosome treatment (25 μg/mL); immunoprecipitated with anti-p65 or mouse IgG overnight at 4 °C, and the reciprocal experiment; western blot; settings: remark: other sources report otherwise

Amino acid sequences for entries named in this document (tags omitted). A change or cut given only in a name is not applied to a line headed by its entry. Residues count along the entry.
UniProt P12830, residues 155-709: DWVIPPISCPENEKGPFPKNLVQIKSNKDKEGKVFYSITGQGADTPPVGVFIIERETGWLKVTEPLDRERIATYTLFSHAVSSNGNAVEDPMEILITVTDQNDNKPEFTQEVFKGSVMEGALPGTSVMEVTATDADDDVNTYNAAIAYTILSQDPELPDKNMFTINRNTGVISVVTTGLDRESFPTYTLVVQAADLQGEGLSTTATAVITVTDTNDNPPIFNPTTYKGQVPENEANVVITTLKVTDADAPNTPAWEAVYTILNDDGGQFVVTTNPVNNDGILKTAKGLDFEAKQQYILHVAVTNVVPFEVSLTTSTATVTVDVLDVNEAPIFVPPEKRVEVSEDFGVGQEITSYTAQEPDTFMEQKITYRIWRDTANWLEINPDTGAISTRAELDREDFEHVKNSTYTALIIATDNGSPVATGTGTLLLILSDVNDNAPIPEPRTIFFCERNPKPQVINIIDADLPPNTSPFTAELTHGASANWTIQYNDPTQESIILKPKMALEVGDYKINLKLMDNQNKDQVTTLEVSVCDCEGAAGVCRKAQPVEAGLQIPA

B1: VE-cadherin (protein, UniProt P33151 48-784)
chain: DWIWNQMHIDEEKNTSLPHHVGKIKSSVSRKNAKYLLKGEYVGKVFRVDAETGDVFAIERLDRENISEYHLTAVIVDKDTGENLETPSSFTIKVHDVNDNWPVFTHRLFNASVPESSAVGTSVISVTAVDADDPTVGDHASVMYQILKGKEYFAIDNSGRIITITKSLDREKQARYEIVVEARDAQGLRGDSGTATVLVTLQDINDNFPFFTQTKYTFVVPEDTRVGTSVGSLFVEDPDEPQNRMTKYSILRGDYQDAFTIETNPAHNEGIIKPMKPLDYEYIQQYSFIVEATDPTIDLRYMSPPAGNRAQVIINITDVDEPPIFQQPFYHFQLKENQKKPLIGTVLAMDPDAARHSIGYSIRRTSDKGQFFRVTKKGDIYNEKELDREVYPWYNLTVEAKELDSTGTPTGKESIVQVHIEVLDENDNAPEFAKPYQPKVCENAVHGQLVLQISAIDKDITPRNVKFKFILNTENNFTLTDNHDNTANITVKYGQFDREHTKVHFLPVVISDNGMPSRTGTSTLTVAVCKCNEQGEFTFCEDMAAQVGVSIQAVVAILLCILTITVITLLIFLRRRLRKQARAHGKSVPEIHEQLVTYDEEGGGEMDTTSYDVSVLNSVRRGGAKPPRPALDARPSLYAQVQKPPRHAPGAHGGPGEMAAMIEVKKDEADHDGDGPPYDTLHIYGYEGSESIAESLSSLGTDSSDSDVDYDFLNDWGPRFKMLAELYGSDPREELLY
- binding [1]: binds

B2: β-catenin, P35222 1-781 (protein)
chain: MATQADLMELDMAMEPDRKAAVSHWQQQSYLDSGIHSGATTTAPSLSGKGNPEEEDVDTSQVLYEWEQGFSQSFTQEQVADIDGQYAMTRAQRVRAAMFPETLDEGMQIPSTQFDAAHPTNVQRLAEPSQMLKHAVVNLINYQDDAELATRAIPELTKLLNDEDQVVVNKAAVMVHQLSKKEASRHAIMRSPQMVSAIVRTMQNTNDVETARCTAGTLHNLSHHREGLLAIFKSGGIPALVKMLGSPVDSVLFYAITTLHNLLLHQEGAKMAVRLAGGLQKMVALLNKTNVKFLAITTDCLQILAYGNQESKLIILASGGPQALVNIMRTYTYEKLLWTTSRVLKVLSVCSSNKPAIVEAGGMQALGLHLTDPSQRLVQNCLWTLRNLSDAATKQEGMEGLLGTLVQLLGSDDINVVTCAAGILSNLTCNNYKNKMMVCQVGGIEALVRTVLRAGDREDITEPAICALRHLTSRHQEAEMAQNAVRLHYGLPVVVKLLHPPSHWPLIKATVGLIRNLALCPANHAPLREQGAIPRLVQLLVRAHQDTQRRTSMGGTQQQFVEGVRMEEIVEGCTGALHILARDVHNRIVIRGLNTIPLFVQLLYSPIENIQRVAAGVLCELAQDKEAAEAIEAEGATAPLTELLHSRNEGVATYAAAVLFRMSEDKPQDYKKRLSVELTSSLFRTEPMAWNETADLGLDIGAQGEPLGYRQDDPSYRSFHSGGYGQDALGMDPMMEHEMGGHHPGADYPVDGLPDLGHAQDLMDGLPPGDSNQLAWFDTDL
- binding [2]: no binding
